These are yes or no findings as the source states them, for the method shown. For some of these results: In cells and extracts the contact can be indirect. Some results given as binding are weak or reduced against the parent protein; the word gives no strength. Sequences can lack the tags named with a protein.

In test [1] the target is T1, MBP-RGA (REPRESSOR OF ga1-3 fused with maltose-binding protein) (Arabidopsis) (UniProt Q9SLH3).
T1 sequence: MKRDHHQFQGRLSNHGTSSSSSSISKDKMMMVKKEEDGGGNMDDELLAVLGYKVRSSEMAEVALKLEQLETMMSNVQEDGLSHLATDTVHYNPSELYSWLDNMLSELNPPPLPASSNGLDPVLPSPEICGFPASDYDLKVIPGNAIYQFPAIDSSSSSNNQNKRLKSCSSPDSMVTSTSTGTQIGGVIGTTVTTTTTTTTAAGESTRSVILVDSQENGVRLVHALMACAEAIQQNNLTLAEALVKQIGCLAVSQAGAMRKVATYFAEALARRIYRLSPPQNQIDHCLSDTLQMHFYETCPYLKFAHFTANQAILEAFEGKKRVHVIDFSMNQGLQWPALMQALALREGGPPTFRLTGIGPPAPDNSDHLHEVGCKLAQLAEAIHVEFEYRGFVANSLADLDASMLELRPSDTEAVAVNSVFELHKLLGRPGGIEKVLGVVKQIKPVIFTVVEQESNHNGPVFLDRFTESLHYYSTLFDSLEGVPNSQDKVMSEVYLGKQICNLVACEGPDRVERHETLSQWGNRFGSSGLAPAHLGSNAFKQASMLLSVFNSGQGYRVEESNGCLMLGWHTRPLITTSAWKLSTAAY
The test is described as follows: pull-down; 2 ug MBP or MBP-RGA mixed with 2 ug His- or GST-tagged protein in 500 ul binding buffer (20 mM Tris-HCl pH 7.5, 150 mM NaCl, 0.1% Nonidet P-40), 4 °C, 2 h; captured on amylose agarose beads; immunoblots with anti-His, anti-GST, anti-MBP; both purified.

In test [2] the target is T2, YFP^N-RGA (Arabidopsis) (UniProt Q9SLH3).
T2 sequence: T1 sequence
The test is described as follows: split reporter; BiFC: YFP^N-RGA with YFP^C-PIF plasmids, particle-mediated transformation of onion epidermal cells, YFP signal after 24 h by confocal microscopy.

B1: His-PIF1 (protein, UniProt Q8GZM7 1-478)
chain: MHHFVPDFDTDDDYVNNHNSSLNHLPRKSITTMGEDDDLMELLWQNGQVVVQNQRLHTKKPSSSPPKLLPSMDPQQQPSSDQNLFIQEDEMTSWLHYPLRDDDFCSDLLFSAAPTATATATVSQVTAARPPVSSTNESRPPVRNFMNFSRLRGDFNNGRGGESGPLLSKAVVRESTQVSPSATPSAAASESGLTRRTDGTDSSAVAGGGAYNRKGKAVAMTAPAIEITGTSSSVVSKSEIEPEKTNVDDRKRKEREATTTDETESRSEETKQARVSTTSTKRSRAAEVHNLSERKRRDRINERMKALQELIPRCNKSDKASMLDEAIEYMKSLQLQIQMMSMGCGMMPMMYPGMQQYMPHMAMGMGMNQPIPPPSFMPFPNMLAAQRPLPTQTHMAGSGPQYPVHASDPSRVFVPNQQYDPTSGQPQYPAGYTDPYQQFRGLHPTQPPQFQNQATSYPSSSRVSSSKESEDHGNHTTG
Regarding B1, in test [1], the binding result is “binds”.

B2: YFP^C-PIF1 (protein, UniProt Q8GZM7 1-478)
chain: B1 chain
In the case of B2, the binding entry in test [2] is recorded as “binds”.

B3: GST-PIF5 (protein, UniProt Q84LH8 1-444)
chain: MEQVFADWNFEDNFHMSTNKRSIRPEDELVELLWRDGQVVLQSQARREPSVQVQTHKQETLRKPNNIFLDNQETVQKPNYAALDDQETVSWIQYPPDDVIDPFESEFSSHFFSSIDHLGGPEKPRTIEETVKHEAQAMAPPKFRSSVITVGPSHCGSNQSTNIHQATTLPVSMSDRSKNVEERLDTSSGGSSGCSYGRNNKETVSGTSVTIDRKRKHVMDADQESVSQSDIGLTSTDDQTMGNKSSQRSGSTRRSRAAEVHNLSERRRRDRINERMKALQELIPHCSRTDKASILDEAIDYLKSLQMQLQVMWMGSGMAAAAAAAASPMMFPGVQSSPYINQMAMQSQMQLSQFPVMNRSAPQNHPGLVCQNPVQLQLQAQNQILSEQLARYMGGIPQMPPAGNQMQTVQQQPADMLGFGSPAGPQSQLSAPATTDSLHMGKIG
For B3, in test [1], the binding entry is on record as “binds”.

B4: YFP^C-PIF5 (protein, UniProt Q84LH8 1-444)
chain: B3 chain
Turning to B4, the binding result in test [2] is given as “binds”.

The record behind these values is publication PMC4906400.
